Measurements published in article PMC7031342.
Results are given in words; binding and its absence hold for the method and conditions named. For some assays here: In cells and extracts the contact can be indirect. Some results given as binding are weak or reduced against the parent protein; the word gives no strength.

Chains of the proteins cited; added tags and fusions are not shown.
UniProt Q00765: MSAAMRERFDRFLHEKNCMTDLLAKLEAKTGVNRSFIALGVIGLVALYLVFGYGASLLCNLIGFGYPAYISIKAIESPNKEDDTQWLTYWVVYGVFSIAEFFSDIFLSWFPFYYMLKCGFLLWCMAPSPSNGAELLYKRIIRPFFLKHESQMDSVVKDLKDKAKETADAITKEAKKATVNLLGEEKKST
UniProt Q60870: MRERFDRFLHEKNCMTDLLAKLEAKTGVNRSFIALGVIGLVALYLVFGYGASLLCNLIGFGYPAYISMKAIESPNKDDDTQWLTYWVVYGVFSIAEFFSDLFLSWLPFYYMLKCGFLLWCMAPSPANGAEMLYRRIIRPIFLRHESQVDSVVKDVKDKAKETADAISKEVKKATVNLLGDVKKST

B1: ATL3 (HEK293) (protein, UniProt Q6DD88 1-541)
chain: MLSPQRVAAAASRGADDAMESSKPGPVQVVLVQKDQHSFELDEKALASILLQDHIRDLDVVVVSVAGAFRKGKSFILDFMLRYLYSQKESGHSNWLGDPEEPLTGFSWRGGSDPETTGIQIWSEVFTVEKPGGKKVAVVLMDTQGAFDSQSTVKDCATIFALSTMTSSVQIYNLSQNIQEDDLQQLQLFTEYGRLAMDEIFQKPFQTLMFLVRDWSFPYEYSYGLQGGMAFLDKRLQVKEHQHEEIQNVRNHIHSCFSDVTCFLLPHPGLQVATSPDFDGKLKDIAGEFKEQLQALIPYVLNPSKLMEKEINGSKVTCRGLLEYFKAYIKIYQGEDLPHPKSMLQATAEANNLAAAASAKDIYYNNMEEVCGGEKPYLSPDILEEKHCEFKQLALDHFKKTKKMGGKDFSFRYQQELEEEIKELYENFCKHNGSKNVFSTFRTPAVLFTGIVALYIASGLTGFIGLEVVAQLFNCMVGLLLIALLTWGYIRYSGQYRELGGAIDFGAAYVLEQASSHIGNSTQATVRDAVVGRPSMDKKAQ
B2: Nogo-A (mouse heart) (protein, UniProt Q99P72-2 1-1162)
chain: MEDIDQSSLVSSSADSPPRPPPAFKYQFVTEPEDEEDEEDEEEEEDDEDLEELEVLERKPAAGLSAAPVPPAAAPLLDFSSDSVPPAPRGPLPAAPPTAPERQPSWERSPAASAPSLPPAAAVLPSKLPEDDEPPARPPAPAGASPLAEPAAPPSTPAAPKRRGSGSVDETLFALPAASEPVIPSSAEKIMDLKEQPGNTVSSGQEDFPSVLFETAASLPSLSPLSTVSFKEHGYLGNLSAVASTEGTIEETLNEASRELPERATNPFVNRESAEFSVLEYSEMGSSFNGSPKGESAMLVENTKEEVIVRSKDKEDLVCSAALHNPQESPATLTKVVKEDGVMSPEKTMDIFNEMKMSVVAPVREEYADFKPFEQAWEVKDTYEGSRDVLAARANMESKVDKKCFEDSLEQKGHGKDSESRNENASFPRTPELVKDGSRAYITCDSFSSATESTAANIFPVLEDHTSENKTDEKKIEERKAQIITEKTSPKTSNPFLVAIHDSEADYVTTDNLSKVTEAVVATMPEGLTPDLVQEACESELNEATGTKIAYETKVDLVQTSEAIQESIYPTAQLCPSFEEAEATPSPVLPDIVMEAPLNSLLPSTGASVAQPSASPLEVPSPVSYDGIKLEPENPPPYEEAMSVALKTSDSKEEIKEPESFNAAAQEAEAPYISIACDLIKETKLSTEPSPEFSNYSEIAKFEKSVPDHCELVDDSSPESEPVDLFSDDSIPEVPQTQEEAVMLMKESLTEVSETVTQHKHKERLSASPQEVGKPYLESFQPNLHITKDAASNEIPTLTKKETISLQMEEFNTAIYSNDDLLSSKEDKMKESETFSDSSPIEIIDEFPTFVSAKDDSPKEYTDLEVSNKSEIANVQSGANSLPCSELPCDLSFKNTYPKDEAHVSDEFSKSRSSVSKVPLLLPNVSALESQIEMGNIVKPKVLTKEAEEKLPSDTEKEDRSLTAVLSAELNKTSVVDLLYWRDIKKTGVVFGASLFLLLSLTVFSIVSVTAYIALALLSVTISFRIYKGVIQAIQKSDEGHPFRAYLESEVAISEELVQKYSNSALGHVNSTIKELRRLFLVDDLVDSLKFAVLMWVFTYVGALFNGLTLLILALISLFSIPVIYERHQAQIDHYLGLANKSVKDAMAKIQAKIPGLKRKAE
B3: Nogo-B (mouse heart) (protein, UniProt Q99P72-5 1-356)
chain: MEDIDQSSLVSSSADSPPRPPPAFKYQFVTEPEDEEDEEDEEEEEDDEDLEELEVLERKPAAGLSAAPVPPAAAPLLDFSSDSVPPAPRGPLPAAPPTAPERQPSWERSPAASAPSLPPAAAVLPSKLPEDDEPPARPPAPAGASPLAEPAAPPSTPAAPKRRGSGSVVVDLLYWRDIKKTGVVFGASLFLLLSLTVFSIVSVTAYIALALLSVTISFRIYKGVIQAIQKSDEGHPFRAYLESEVAISEELVQKYSNSALGHVNSTIKELRRLFLVDDLVDSLKFAVLMWVFTYVGALFNGLTLLILALISLFSIPVIYERHQAQIDHYLGLANKSVKDAMAKIQAKIPGLKRKAE
B4: ATL3 (mouse heart) (protein, UniProt Q91YH5 1-541)
chain: MLSPQRTAAVASRGAGDAMENGKPGPVQVVLVHKEQHSFELEERALASVLLQDHIRDLDVVVVSVAGAFRKGKSFILDFMLRYLYSQKEGGHSDWLGDPEEPLTGFSWRGGSDPETTGIQIWSEVFTVKKPCGKKVAVVLMDTQGAFDSQSTVKDCATIFALSTMTSSVQIYNLSQNIQEDDLQQLQLFTEYGRLAMDEIFQKPFQTLMFLIRDWSFPYEYNYGLQGGMAFLDKRLHVKEHQHEEIQNVRNHIHSCFSDVTCFLLPHPGLQVATSPNFDGKLKDIASEFKEQLQALIPYVLNPSKLMEKEINGSKVTCRGLLEYFKAYIKIYQGEDLPHPKSMLQATAEANNLAAAASAKDIYYNNMEEICGGEKPYLSPDILEEKHLEFKQLALDHFKKIKKMGGKDFSFRYQQELEEEIKELYENFCKHNGSKNVFSTFRTPAVLFTGIAALYIASGFTGFIGLEVVAQLFNCMVGLLLIALLTWGYIRYSGQYRELGGAIDSGAAYVLEQASSHIGNSTQAAVRDAVVGRPPADKKSQ
B5: Ost1p-NubG (protein, UniProt P41543 23-476)
chain: AQYEPPATWENVDYKRTIDVSNAYISETIEITIKNIASEPATEYFTAFESGIFSKVSFFSAYFTNEATFLNSQLLANSTTAPGDDGESEIRYGIIQFPNAISPQEEVSLVIKSFYNTVGIPYPEHVGMSEEQHLLWETNRLPLSAYDTKKASFTLIGSSSFEEYHPPNDESLLGKANGNSFEFGPWEDIPRFSSNETLAIVYSHNAPLNQVVNLRRDIWLSHWASTIQFEEYYELTNKAAKLSKGFSRLELMKQIQTQNMRQTHFVTVLDMLLPEGATDHYFTDLVGLVSTSHAERDHFFIRPRFPIFGGWNYNFTVGWTNKLSDFLHVSSGSDEKFVASIPILNGPPDTVYDNVELSVFLPEGAEIFDIDSPVPFTNVSIETQKSYFDLNKGHVKLTFSYRNLISQVANGQVLIKYDYPKSSFFKKPLSIACYIFTALMGVFVLKTLNMNVTN

Tests used:
[1] = target: CnVA-tagged (StrepII-6xHis, 3xFlag) REEP5 (human) (UniProt Q00765); experiment: pull-down; nickel-His purification of CnVA-REEP5 from transfected HEK293 cells; immunoblots of the eluate
[2] = target: endogenous mouse REEP5 (mouse (endogenous in mouse tissues)) (UniProt Q60870); experiment: co-IP; total neonatal mouse ventricular cardiac lysate
[3] = target: endogenous mouse REEP5 (mouse (endogenous in mouse tissues)) (UniProt Q60870); experiment: co-IP; adult mouse cardiac (ventricular) microsomes; immunoprecipitation with anti-REEP5, anti-RTN4/Nogo-A/B, anti-ATL3 or anti-CKAP4 antibody, immunoblot
TF-Cub-REEP5 (human) = TF-Cub-REEP5 (human) (UniProt Q00765); experiment: two-hybrid; membrane yeast two-hybrid (MYTH, split ubiquitin); bait TF-Cub-REEP5, prey Ost1p fused at its C-terminus with NubG; growth on SD-WLAH + 10 nM 3-AT

Row | Binder | binding [1] | binding [2] | binding [3] | binding (TF-Cub-REEP5 (human))
1 | B1 | binds | – | – | –
2 | B2 | – | binds | binds | –
3 | B3 | – | binds | binds | –
4 | B4 | – | binds | binds | –
5 | B5 | – | – | – | no binding
